This note sets out measurements from publication PMC4702135.

Sequences of proteins named here, by UniProt entry; tags and fusion partners are left off.
UniProt Q7LG56: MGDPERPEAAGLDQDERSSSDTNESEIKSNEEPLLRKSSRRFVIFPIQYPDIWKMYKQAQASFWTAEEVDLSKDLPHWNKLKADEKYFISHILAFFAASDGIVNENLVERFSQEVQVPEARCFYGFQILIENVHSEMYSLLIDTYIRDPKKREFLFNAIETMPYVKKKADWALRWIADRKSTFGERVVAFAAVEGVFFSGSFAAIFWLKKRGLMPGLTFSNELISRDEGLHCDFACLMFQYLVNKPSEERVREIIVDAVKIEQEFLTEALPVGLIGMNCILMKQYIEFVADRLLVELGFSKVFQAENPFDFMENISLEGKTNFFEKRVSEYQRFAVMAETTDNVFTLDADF
UniProt P31350: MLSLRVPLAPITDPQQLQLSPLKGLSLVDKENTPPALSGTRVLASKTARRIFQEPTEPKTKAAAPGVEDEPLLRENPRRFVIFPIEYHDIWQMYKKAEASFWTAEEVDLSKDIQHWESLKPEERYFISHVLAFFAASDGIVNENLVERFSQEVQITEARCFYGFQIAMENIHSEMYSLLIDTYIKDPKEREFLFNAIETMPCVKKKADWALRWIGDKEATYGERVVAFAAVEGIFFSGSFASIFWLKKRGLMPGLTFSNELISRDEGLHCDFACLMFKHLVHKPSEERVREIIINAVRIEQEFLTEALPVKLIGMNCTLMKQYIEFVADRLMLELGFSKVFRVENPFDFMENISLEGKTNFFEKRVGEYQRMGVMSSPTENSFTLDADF

These are yes or no findings as the source states them, for the method shown. In cells and extracts the contact can be indirect. A yes stands for co-enrichment or nearness to the bait. Other partners may have been found.

The target of this test is Flag-tagged RRM2B (Flag at the N-terminus), ribonucleotide reductase small subunit B (human) (UniProt Q7LG56). The experiment in a line: affinity purification with mass spectrometry; large-scale anti-Flag immunoprecipitation from whole cell lysate of doxycycline-induced 293 T-REx-Flag-RRM2B cells, urea elution, protease digestion, LC-MS; cells with untagged RRM2B as negative control.

Take “RRM2, ribonucleotide reductase small subunit (from UniProt P31350 1-389)”: the binding result is reported as “binds”.
